Experimental findings from PMC8209095 are described below.

By UniProt entry, the sequences of proteins in these tests, tags left out.
UniProt P13010: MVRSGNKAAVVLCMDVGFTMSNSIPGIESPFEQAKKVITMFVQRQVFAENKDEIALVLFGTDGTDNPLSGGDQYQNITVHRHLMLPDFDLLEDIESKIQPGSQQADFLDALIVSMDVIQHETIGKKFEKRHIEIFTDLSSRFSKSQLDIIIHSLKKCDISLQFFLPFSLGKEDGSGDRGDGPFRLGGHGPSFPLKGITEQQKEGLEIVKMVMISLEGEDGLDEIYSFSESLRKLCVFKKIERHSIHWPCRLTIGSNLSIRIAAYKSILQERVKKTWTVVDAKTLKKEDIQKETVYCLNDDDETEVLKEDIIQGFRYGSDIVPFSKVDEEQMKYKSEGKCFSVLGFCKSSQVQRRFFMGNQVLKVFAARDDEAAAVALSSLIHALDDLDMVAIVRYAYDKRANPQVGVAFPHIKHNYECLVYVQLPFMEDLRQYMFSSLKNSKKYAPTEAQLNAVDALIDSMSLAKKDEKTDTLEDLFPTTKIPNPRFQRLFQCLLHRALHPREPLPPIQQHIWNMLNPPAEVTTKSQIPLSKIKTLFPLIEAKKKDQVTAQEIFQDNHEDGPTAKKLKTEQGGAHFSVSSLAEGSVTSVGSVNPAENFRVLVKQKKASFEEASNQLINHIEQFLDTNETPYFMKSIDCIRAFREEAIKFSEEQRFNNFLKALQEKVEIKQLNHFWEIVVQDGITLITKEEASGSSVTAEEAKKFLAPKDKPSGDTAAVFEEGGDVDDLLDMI
UniProt P12956: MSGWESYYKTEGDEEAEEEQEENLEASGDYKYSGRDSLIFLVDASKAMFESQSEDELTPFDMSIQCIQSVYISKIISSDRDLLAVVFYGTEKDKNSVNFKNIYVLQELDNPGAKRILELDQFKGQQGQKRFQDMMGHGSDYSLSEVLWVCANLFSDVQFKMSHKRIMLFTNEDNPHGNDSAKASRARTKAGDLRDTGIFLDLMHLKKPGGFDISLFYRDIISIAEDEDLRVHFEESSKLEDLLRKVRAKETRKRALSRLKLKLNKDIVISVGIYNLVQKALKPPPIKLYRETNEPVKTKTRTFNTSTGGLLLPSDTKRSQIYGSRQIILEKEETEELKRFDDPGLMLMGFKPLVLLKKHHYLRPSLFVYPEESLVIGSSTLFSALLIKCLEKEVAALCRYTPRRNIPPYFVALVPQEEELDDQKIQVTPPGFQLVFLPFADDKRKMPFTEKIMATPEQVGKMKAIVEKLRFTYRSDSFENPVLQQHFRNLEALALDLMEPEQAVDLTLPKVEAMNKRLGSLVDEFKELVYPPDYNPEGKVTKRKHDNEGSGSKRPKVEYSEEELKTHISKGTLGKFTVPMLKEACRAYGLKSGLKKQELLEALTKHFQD

Test [1] concerns the target T1, full-length human OGA (OGA-FL) expressed in 293T cells (human) (UniProt O60502).
T1 sequence: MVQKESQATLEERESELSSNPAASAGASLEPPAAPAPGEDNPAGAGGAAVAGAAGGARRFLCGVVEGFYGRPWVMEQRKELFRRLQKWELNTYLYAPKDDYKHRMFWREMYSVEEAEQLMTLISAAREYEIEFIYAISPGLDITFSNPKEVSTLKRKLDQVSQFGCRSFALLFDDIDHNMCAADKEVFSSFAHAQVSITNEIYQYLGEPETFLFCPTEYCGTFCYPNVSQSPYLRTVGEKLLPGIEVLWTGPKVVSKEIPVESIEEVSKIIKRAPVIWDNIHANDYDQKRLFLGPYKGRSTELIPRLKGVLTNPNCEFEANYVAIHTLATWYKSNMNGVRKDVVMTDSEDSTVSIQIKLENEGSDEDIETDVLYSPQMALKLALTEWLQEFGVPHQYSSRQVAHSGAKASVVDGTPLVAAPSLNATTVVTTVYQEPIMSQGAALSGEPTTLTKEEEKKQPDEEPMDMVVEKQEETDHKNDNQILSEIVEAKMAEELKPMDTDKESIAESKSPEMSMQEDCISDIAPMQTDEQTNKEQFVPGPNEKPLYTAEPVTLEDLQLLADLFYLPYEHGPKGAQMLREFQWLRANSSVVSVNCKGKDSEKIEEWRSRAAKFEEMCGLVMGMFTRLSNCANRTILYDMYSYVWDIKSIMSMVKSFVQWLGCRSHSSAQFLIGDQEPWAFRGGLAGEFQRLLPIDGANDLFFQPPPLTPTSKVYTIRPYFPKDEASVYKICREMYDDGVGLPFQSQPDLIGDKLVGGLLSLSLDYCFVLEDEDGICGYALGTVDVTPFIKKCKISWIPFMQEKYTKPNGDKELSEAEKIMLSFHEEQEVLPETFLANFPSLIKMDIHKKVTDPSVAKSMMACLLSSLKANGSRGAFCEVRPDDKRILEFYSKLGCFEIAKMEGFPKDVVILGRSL
Put plainly: co-IP; SFB-OGA constructs expressed in 293T cells, with Myc-tagged or endogenous NONO, Ku70, Ku80; lysed with NETN300 buffer; IP and western blot; with or without 10 Gy of IR. (In general: Immunoblotting shows a protein as a band on a membrane.)

Test [2] deals with T2, O-GlcNAcase (OGA), full length, SFB-tagged (human) (UniProt O60502).
T2 sequence: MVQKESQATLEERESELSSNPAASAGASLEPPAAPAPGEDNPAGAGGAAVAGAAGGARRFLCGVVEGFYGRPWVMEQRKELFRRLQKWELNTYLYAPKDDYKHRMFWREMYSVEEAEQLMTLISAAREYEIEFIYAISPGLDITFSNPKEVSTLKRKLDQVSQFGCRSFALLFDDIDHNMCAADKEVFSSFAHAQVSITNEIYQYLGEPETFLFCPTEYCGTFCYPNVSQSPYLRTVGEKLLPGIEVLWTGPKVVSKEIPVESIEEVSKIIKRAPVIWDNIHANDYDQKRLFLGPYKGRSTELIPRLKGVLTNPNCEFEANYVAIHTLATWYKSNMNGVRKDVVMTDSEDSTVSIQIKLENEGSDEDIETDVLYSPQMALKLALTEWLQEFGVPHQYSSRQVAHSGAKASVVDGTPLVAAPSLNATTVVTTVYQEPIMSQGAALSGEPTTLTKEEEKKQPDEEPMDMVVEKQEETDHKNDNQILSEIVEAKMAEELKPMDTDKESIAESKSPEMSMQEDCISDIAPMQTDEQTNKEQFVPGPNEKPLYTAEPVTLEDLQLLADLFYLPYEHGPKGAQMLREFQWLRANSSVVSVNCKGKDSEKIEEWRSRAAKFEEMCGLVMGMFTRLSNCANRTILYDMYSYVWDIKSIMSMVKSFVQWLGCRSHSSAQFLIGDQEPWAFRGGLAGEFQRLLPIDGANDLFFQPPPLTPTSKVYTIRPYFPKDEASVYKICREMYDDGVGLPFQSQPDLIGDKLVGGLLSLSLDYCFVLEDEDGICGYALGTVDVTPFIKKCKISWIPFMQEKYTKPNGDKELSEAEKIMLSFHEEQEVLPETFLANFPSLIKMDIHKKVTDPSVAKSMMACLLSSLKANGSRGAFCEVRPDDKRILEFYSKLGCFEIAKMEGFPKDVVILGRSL
Kind of test: co-IP; tagged OGA precipitated on streptavidin from lysates of cells treated with mock, OGT inhibitor OSMI-1 or TMG; western blot for NONO, Ku70, Ku80 and FLAG.

These are yes or no findings as the source states them, for the method shown. In cells and extracts the contact can be indirect. Some binding calls cover weakened binding; strength is not graded here. For part of these data: Where a sequence is shown, tags or fusion partners need not be part of it.

Regarding “endogenous Ku80 (from UniProt P13010 1-732)”, in test [1], the binding entry is on record as “binds”.

For “endogenous Ku70 (from UniProt P12956 1-609)”, the binding result in test [1] is reported as “binds”.

“Ku70, endogenous (from UniProt P12956 1-609)”: the binding entry in test [2] is “binds”.

As for “Ku80, endogenous (from UniProt P13010 1-732)”, in test [2], the binding result is “binds”.

B1: NONO, endogenous (protein, UniProt Q15233 1-471)
chain: MQSNKTFNLEKQNHTPRKHHQHHHQQQHHQQQQQQPPPPPIPANGQQASSQNEGLTIDLKNFRKPGEKTFTQRSRLFVGNLPPDITEEEMRKLFEKYGKAGEVFIHKDKGFGFIRLETRTLAEIAKVELDNMPLRGKQLRVRFACHSASLTVRNLPQYVSNELLEEAFSVFGQVERAVVIVDDRGRPSGKGIVEFSGKPAARKALDRCSEGSFLLTTFPRPVTVEPMDQLDDEEGLPEKLVIKNQQFHKEREQPPRFAQPGSFEYEYAMRWKALIEMEKQQQDQVDRNIKEAREKLEMEMEAARHEHQVMLMRQDLMRRQEELRRMEELHNQEVQKRKQLELRQEEERRRREEEMRRQQEEMMRRQQEGFKGTFPDAREQEIRMGQMAMGGAMGINNRGAMPPAPVPAGTPAPPGPATMMPDGTLGLTPPTTERFGQAATMEGIGAIGGTPPAFNRAAPGAEFAPNKRRRY
Turning to B1, the binding result in test [2] is recorded as “binds”.

B2: endogenous NONO (protein, UniProt Q15233 1-471)
chain: MQSNKTFNLEKQNHTPRKHHQHHHQQQHHQQQQQQPPPPPIPANGQQASSQNEGLTIDLKNFRKPGEKTFTQRSRLFVGNLPPDITEEEMRKLFEKYGKAGEVFIHKDKGFGFIRLETRTLAEIAKVELDNMPLRGKQLRVRFACHSASLTVRNLPQYVSNELLEEAFSVFGQVERAVVIVDDRGRPSGKGIVEFSGKPAARKALDRCSEGSFLLTTFPRPVTVEPMDQLDDEEGLPEKLVIKNQQFHKEREQPPRFAQPGSFEYEYAMRWKALIEMEKQQQDQVDRNIKEAREKLEMEMEAARHEHQVMLMRQDLMRRQEELRRMEELHNQEVQKRKQLELRQEEERRRREEEMRRQQEEMMRRQQEGFKGTFPDAREQEIRMGQMAMGGAMGINNRGAMPPAPVPAGTPAPPGPATMMPDGTLGLTPPTTERFGQAATMEGIGAIGGTPPAFNRAAPGAEFAPNKRRRY
As for B2, the binding result in test [1] was “binds”.
